# The other results are listed elsewhere or left out. Further columns of the screen follow, without active or inactive calls. Most of these compounds were active or inconclusive in the main read-out, so they are no random draw. Potencies come from curve fits of mixed quality, noted in brackets.
# Experiment: qHTS Assay to Find Inhibitors of Chronic Active B-Cell Receptor Signaling
# Conditions: ABC-DLBCL IkBa-CBG/CBR reporter, luminescence ratio (green luciferase fused to IkBa over red control in TMD8 lymphoma cells), 4 h
# Procedure, shortened: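 TMD8 ABC-DLBCL cells carrying doxycycline-inducible green luciferase fused to IkappaBalpha plus unfused red luciferase were exposed to compounds (up to 46 uM) for 4 hrs at 37C. Activity came from the overlap-corrected green/red luminescence ratio.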
# [1] = measured here: CBR red luminescence, cell number
# [2] = measured here: IkBa-CBG green luminescence
Compound,AC50 [1],AC50 [2]
CC(/C=N/NC(=O)c1cccnc1)=C\c1ccccc1,"20 µM [falling, partial curve, poor fit]",
COCC1CCCN(Cc2cn(Cc3ccccc3)nc2-c2cc3ccccc3o2)C1 (stereo not given),"35.5 µM [falling, single point]",
Cc1ccc(C2=NN(CC(=O)NCCC(C)C)C(=O)CC2)cc1,"5.62 µM [falling, single point]","3.55 µM [rising, single point]"
COC(=O)/C(C#N)=C/c1c(Oc2cccc(C)c2C)nc2ccccn2c1=O,"10 µM [rising, partial curve, poor fit]",
Cc1nnc(Nc2ccc3c(c2)ncn3C)c2ccccc12,"2.51 µM [falling, partial curve, poor fit]",
O=c1ccnc(SCCc2ccccc2)[nH]1,"22.4 µM [falling, single point]",
CCOCC(=O)Nc1cc(S(=O)(=O)N2CCOCC2)ccc1N1CCCCC1,"2.24 µM [rising, partial curve, poor fit]",
Cc1ccn2c(C(=O)N/N=C\c3cccs3)c(C)nc2c1,"6.51 µM [rising, partial curve, poor fit]",
O=C(Nc1ccc(S(=O)(=O)Nc2ncccn2)cc1)c1ccc2ncsc2c1,"15.8 µM [falling, partial curve]",
O=C(OCc1cc(=O)n2ccsc2n1)c1ccccc1NCCO,"6.51 µM [falling, partial curve, poor fit]",
CC1(C)C(=O)CC[C@@]2(C)[C@H]1CC[C@@]1(C)CC3=C(CC[C@@H]12)[C@@]1(C)CCC(=O)C(C)(C)[C@@H]1CC3,"32.6 µM [falling, partial curve, poor fit]",
CCOC(=O)c1sc(NC(=O)c2ccc(S(=O)(=O)N3CCOCC3)cc2)nc1-c1ccccc1,"2.59 µM [falling, full curve]",
COc1cc2nc(C3CCC3)nc(N3CCN(c4ccccn4)CC3)c2cc1OC,"23.1 µM [falling, single point]",
CCCN(CCC)c1ncnc2nc[nH]c12,"1.64 µM [rising, partial curve, poor fit]",
COc1ccc(OC)c(C2CC(c3c(-c4ccccc4)c4cc(Cl)ccc4[nH]c3=O)=NN2S(C)(=O)=O)c1 (stereo not given),"5.62 µM [falling, single point]",
Cc1ccc(C(=O)c2cnc3cc4c(cc3c2S(=O)(=O)c2ccccc2)OCCO4)cc1,"1.84 µM [falling, full curve]",
C/C(=N\NC(=O)c1ccn[nH]1)c1cn(C)nc1C,"25.9 µM [falling, single point]",
CN(C)S(=O)(=O)c1cc(NC(=O)COC(=O)/C=C/c2ccco2)ccc1Cl,"35.5 µM [rising, single point]",
Cc1cc(NC(=O)c2ccc(S(=O)(=O)N3CCCC3)cc2)nc2c1c(=O)oc1ccccc12,"0.231 µM [falling, full curve]","3.26 µM [rising, full curve]"
CC(C)CSc1ncnc2c1oc1nc3c(cc12)COC(C)(C)C3,"18.4 µM [rising, single point]",
CC(=O)c1cccc(NC(=O)Nc2ccc3c(c2)N(C)C(=O)CS3)c1,"29.1 µM [rising, single point]",

Compound,AC50 [1],AC50 [2]
CCCC(=O)Nc1nnc(Sc2ccc(N(C)C)cc2)s1,"5.17 µM [falling, single point]",
CCCC(C(=O)NCc1ccco1)N(C(=O)CNS(=O)(=O)c1ccccc1)c1ccc(OC)cc1 (stereo not given),"12.6 µM [falling, partial curve, poor fit]",
CSc1ccccc1NC(=O)C1CC(c2ccccc2O)=NO1 (stereo not given),"1.3 µM [falling, full curve, poor fit]",
CC(=O)Nc1ccc(-c2cn3ccsc3n2)cc1,"16.4 µM [falling, partial curve, poor fit]",
C=CCNCCCOc1ccc(Cl)cc1C(C)(C)C,"35.5 µM [falling, single point]",
COc1ccccc1NS(=O)(=O)c1ccc2[nH]c(=S)oc2c1,"20.6 µM [rising, partial curve]",
CC[N+]1(CC)CC2=Cc3c(ccc4ccccc34)CC2C1 (stereo not given),"2.31 µM [falling, partial curve, poor fit]",
CCCOc1ccc2oc(=O)c3c(c2c1)CCCN3C(=O)CN1CCc2ccccc2C1,"35.5 µM [falling, single point]",
C/C(=N/OCC(=O)Nc1ccccc1)c1cccs1,"10 µM [falling, partial curve]",
COc1ccc(-c2sc3cc(OC)c(OC)cc3c2C#CCO)cc1,"8.2 µM [rising, partial curve]",
CC1CCCC(C)N1/N=C/c1ccc(Cl)cc1 (stereo not given),"29.1 µM [rising, single point]",
CC(=O)N(C)N(C)c1cc(C)nc(N)n1,"3.16 µM [rising, single point]",
O=C(O)c1ccc(NCCc2ccc(Cl)cc2)c([N+](=O)[O-])c1,"0.251 µM [falling, full curve, poor fit]",
CN1CCN(C(=O)c2cccn(Cc3ccc(C(F)(F)F)cc3)c2=O)CC1,"3.16 µM [rising, single point]",
Cc1ccc(-c2cc(C(=O)N/N=C/c3ccccc3)n[nH]2)o1,"1.58 µM [falling, full curve, poor fit]",
CNC(=O)c1cc(Nc2nnc(-c3ccc(C)c(S(N)(=O)=O)c3)c3ccccc23)ccc1OC,"35.5 µM [falling, single point]",
Cc1nc(-c2ccccn2)nc(N2CCOCC2)c1Cl,"11.2 µM [falling, single point]",
COc1cccc(C(=O)Nc2cccc(S(=O)(=O)NC3=NCCC3)c2)c1,"6.51 µM [falling, partial curve, poor fit]",
O=C1C2C3C=CC(CC3)C2C(=O)N1/N=C/c1ccc(O)c(O)c1 (stereo not given),"8.2 µM [falling, partial curve]",
CCCCCCOC(=O)c1ccc(N)cc1,"12.6 µM [rising, partial curve, poor fit]",
CCOc1ccc(N2C(=O)Nc3ccc(Br)cc3C2(O)C(=O)NC(C)C)cc1 (stereo not given),"10 µM [rising, partial curve]",

Compound,AC50 [1],AC50 [2]
COc1cc(C(=O)NC(=S)Nc2ccc(NC(=O)c3ccco3)cc2)cc(OC)c1OC,"18.4 µM [rising, partial curve, poor fit]",
Cc1ccc(NC2c3ncccc3C(=O)N2C2CCCCC2)cc1 (stereo not given),"11.2 µM [falling, single point]",
CC1(C)NC(=O)N(CC(O)Cn2c3ccccc3c3ccccc32)C1=O (stereo not given),"35.5 µM [falling, single point]",
CSc1nsc(SCC(=O)Nc2ccc(Br)cn2)n1,"11.2 µM [falling, single point]",
COc1cccc(NC(=O)CN(C)C(=O)c2cc(-c3ccccc3)nn2-c2ccccc2)c1,"6.51 µM [rising, partial curve, poor fit]",
CCOC(=O)C1(Cc2ccc(OC)cc2)CCN(C(=O)CCn2cccn2)CC1,"35.5 µM [rising, single point]",
CCCCN(CC)CCCNC(=S)Nc1ccc2nc(N3CCN(CC)CC3)cc(C)c2c1,"2.51 µM [falling, full curve, poor fit]",
CCC(=O)N1CCc2cc(Br)cc(S(=O)(=O)N3CCC(C(=O)NC(C)(C)C)CC3)c21,"12.6 µM [rising, partial curve, poor fit]",
O=c1c2cc(NC(=S)N3CCCCC3)ccc2nc2n1CCCCC2,"1.58 µM [rising, full curve]",
Cc1ccc(C(=O)c2coc3ccc(OCC(=O)O)cc23)cc1,"14.6 µM [falling, single point]",
COc1cc(/C=N/NC(=O)CCC(=O)NCc2ccccc2)cc(OC)c1OC,"14.6 µM [rising, partial curve, poor fit]",
Cc1ccc(-c2cc(C(=O)N/N=C/c3c[nH]c4ccccc34)n[nH]2)o1,"14.6 µM [falling, single point]",
COc1ccccc1OCC(=O)N/N=C/c1c(O)ccc2ccccc12,"22.4 µM [falling, single point]",
COc1ccccc1NC(=O)CSc1nnnn1-c1ccc2c(c1)OCO2,"20.6 µM [falling, single point]",
COc1ccc(CNC(=O)COc2ccccc2C(=O)c2cnn(-c3ccccc3)c2)cc1OC,"29.1 µM [falling, single point]",
COc1ccc(OC)c(-c2nc(C(=O)NCC3CCCO3)cc3c2[nH]c2ccccc23)c1 (stereo not given),"1.58 µM [falling, partial curve, poor fit]",
COc1cccc(N2C(=O)C3CCCN3C2c2ccc(F)cc2)c1 (stereo not given),"3.98 µM [rising, single point]",
Cc1n[nH]c(C)c1CCc1nc2c3ccccc3nc(SCC(=O)Nc3ccccc3F)n2n1,"20.6 µM [rising, single point]",
COc1ccc2c(c1)OC[C@H]1[C@@H]2N2C(=O)CNC(=O)[C@@]2(C)[C@H]1c1ccccc1,"29.1 µM [rising, single point]",
COc1ccc(CCNC(=O)CN2CCC(C)CC2)cc1OC,"3.26 µM [falling, single point]",
CCC(C)(C)NC(=O)c1cc(C(=O)OC)cc([N+](=O)[O-])c1,"4.11 µM [falling, partial curve, poor fit]",

# In another format: results already given
Compound	AC50 [1]	AC50 [2]
COc1cc(/C=N/NC(=O)CCC(=O)NCc2ccccc2)cc(OC)c1OC	14.6 µM [rising, partial curve, poor fit]	
Cc1ccc(-c2cc(C(=O)N/N=C/c3c[nH]c4ccccc34)n[nH]2)o1	14.6 µM [falling, single point]	
COc1ccccc1OCC(=O)N/N=C/c1c(O)ccc2ccccc12	22.4 µM [falling, single point]	

# — PubChem BioAssay AID493014 (National Center for Advancing Translational Sciences (NCATS), 2011)
